This assay relates to HEK293A TEAD-LUC reporter. The assay can be described thus: TEAD-luciferase reporter activity (YAP activation), robust Z score vs plate; higher = stronger YAP/TEAD activation. The following applies: 24 h. Background: A reporter such as luciferase makes a cellular process visible.

“And” between values parts separate entries of the source, which are not always exact repeats. Identical values can stand only once. Counter-ions that a name gives are not always drawn. Some of the results follow. Single values are uncertain here, since repeats match poorly.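 Human kidney-derived cells stably carry a construct in which eight TEAD-binding elements drive luciferase, measured by luminescence in a drug-repurposing library screen. A hit is any compound whose signal exceeds the plate mean by more than five robust Z scores.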

As to `CN(C)CCOc1ccccc1Cc1ccccc1`, the TEAD-luciferase reporter activity by setting is: (compound concentration: 200 nM) inactive: -0.808; (compound concentration: 2 uM) inactive: -1.7; (compound concentration: 10 uM) inactive: -2.57.

`Cn1c(=O)c2c(ncn2CCO)n(C)c1=O` [Etofylline]: the TEAD-luciferase reporter activity is inactive: -1.53 (compound concentration: 200 nM), inactive: -0.308 (compound concentration: 2 uM) and inactive: 0.186 (compound concentration: 10 uM).

Take `O=C(O)C(=S)Cc1ccc(I)cc1`: the TEAD-luciferase reporter activity by setting is: (compound concentration: 200 nM) inactive: -1.49; (compound concentration: 2 uM) inactive: -0.711 and inactive: -1.06; (compound concentration: 10 uM) inactive: -1.54.

For `CCCCCN1CCCCC12Cc1ccccc1CNC2=O` (stereo not drawn), the TEAD-luciferase reporter activity runs as follows: (compound concentration: 200 nM) active: 7.39; (compound concentration: 10 uM) inactive: 0.789.

Regarding `CC1(C)c2nc(-c3ccc(F)cc3)c(Nc3ccc(F)cc3)n2CCN1C(=O)CN`, the TEAD-luciferase reporter activity is inactive: -0.442 (compound concentration: 200 nM), inactive: -0.621 (compound concentration: 2 uM) and inactive: 3.83 (compound concentration: 10 uM).

With `Cc1nc(NCCCCCCc2ccccc2)nc(C)c1O`, the TEAD-luciferase reporter activity by setting is: (compound concentration: 200 nM) inactive: -1.16; (compound concentration: 2 uM) inactive: -0.57; (compound concentration: 10 uM) inactive: 2.91.

Consider `C[C@]1(COc2ccc(N3CCC(Oc4ccc(OC(F)(F)F)cc4)CC3)cc2)Cn2cc([N+](=O)[O-])nc2O1`, for which the TEAD-luciferase reporter activity was inactive: 0.215 (compound concentration: 200 nM), inactive: -0.274 (compound concentration: 2 uM) and inactive: -0.0262 (compound concentration: 10 uM).

Regarding `O=C(OC(CN1CCN(c2ccncc2)CC1)CN1C(=O)[C@@H]2[C@H](C1=O)[C@@H]1C=C[C@H]2C1)C1CCCCC1` (stereo partly drawn), the TEAD-luciferase reporter activity is, setting by setting: (compound concentration: 200 nM) inactive: -1.45; (compound concentration: 2 uM) inactive: -0.794; (compound concentration: 10 uM) inactive: -1.71.

For the compound `Cc1cnc(NS(=O)(=O)c2ccc(N)cc2)nc1`, the TEAD-luciferase reporter activity reads like this: (compound concentration: 200 nM) inactive: -1.74; (compound concentration: 2 uM) inactive: 3.52; (compound concentration: 10 uM) inactive: 0.0232.

Turning to `CC(C)(O)C(C)(O)c1ccc(Cl)cc1` (stereo not drawn), the TEAD-luciferase reporter activity is, setting by setting: (compound concentration: 200 nM) inactive: -0.559; (compound concentration: 2 uM) inactive: -0.589; (compound concentration: 10 uM) inactive: 0.8.

In the case of `O=c1c(O[C@@H]2O[C@H](CO)[C@H](O)[C@H](O)[C@H]2O)c(-c2ccc(O)c(O)c2)oc2cc(O)cc(O)c12`, the TEAD-luciferase reporter activity (compound concentration: 200 nM) was inactive: -1.01 and the TEAD-luciferase reporter activity (compound concentration: 10 uM) is inactive: 3.13.

In the case of `O=c1c(O[C@@H]2O[C@H](CO)[C@H](O)[C@H](O)[C@H]2O)c(-c2ccc(O)c(O)c2)oc2cc(O)cc(O)c12` [Hyperoside], the TEAD-luciferase reporter activity (compound concentration: 2 uM) was inactive: -0.168.

On to `C=C(CO[C@@H]1O[C@@H](CO[C@@H]2OC[C@H](O)[C@H](O)[C@H]2O)[C@@H](O)[C@H](O)[C@H]1O)[C@@H]1Cc2c(ccc3c2OC2COc4cc(OC)c(OC)cc4C2C3=O)O1` (stereo partly drawn), for which the TEAD-luciferase reporter activity is inactive: -1.13 (compound concentration: 200 nM), inactive: -1.51 (compound concentration: 2 uM) and inactive: -1.42 (compound concentration: 10 uM).

On to `O=C(CC(O)C(CC1CCCCC1)NC(=O)C(Cc1cscn1)NC(=O)C(CC(=O)N1CCOCC1)Cc1cccc2ccccc12)NCCN1CCOCC1` (stereo not drawn), for which the TEAD-luciferase reporter activity (compound concentration: 200 nM) is inactive: -1.5, the TEAD-luciferase reporter activity (compound concentration: 2 uM) is inactive: -0.0364 and the TEAD-luciferase reporter activity (compound concentration: 10 uM) was inactive: 0.902.

Consider `CC(=O)NCC(=O)N1Cc2ccccc2CC2(CCCN2Cc2ccccc2)C1` (stereo not drawn), for which the TEAD-luciferase reporter activity was inactive: 0.156 (compound concentration: 200 nM) and inactive: 3.8 (compound concentration: 10 uM).

For the compound `CC(C)[C@H](N)C(=O)OC1C[C@@H](n2ccc(N)nc2=O)O[C@H]1CO` (stereo partly drawn) [Valtorcitabine dihydrochloride], the TEAD-luciferase reporter activity (compound concentration: 200 nM) is inactive: -0.856, the TEAD-luciferase reporter activity (compound concentration: 2 uM) is inactive: 1.38 and the TEAD-luciferase reporter activity (compound concentration: 10 uM) was active: 7.87.

For `CC(=O)N[C@@H](CSC(=O)c1ccccc1OC(C)=O)C(=O)O` [Salmisteine], the TEAD-luciferase reporter activity was inactive: -0.914 (compound concentration: 200 nM), inactive: -0.936 (compound concentration: 2 uM) and inactive: -1.52 (compound concentration: 10 uM).

For the compound `Cc1cccc(OCC(O)CNC(C)(C)C)c1C` (stereo not drawn) [xibenolol], the TEAD-luciferase reporter activity (compound concentration: 200 nM) is inactive: 0.00972, the TEAD-luciferase reporter activity (compound concentration: 2 uM) is inactive: -0.752 and the TEAD-luciferase reporter activity (compound concentration: 10 uM) was inactive: 0.744.

With `CCOc1cc2c(c(F)c1OCC)C(=N)N(CC(=O)c1cc(N3CCOCC3)c(OC)c(C(C)(C)C)c1)C2` [atopaxar], the TEAD-luciferase reporter activity is inactive: 0.124 (compound concentration: 200 nM), inactive: -0.151 (compound concentration: 2 uM) and inactive: -1.69 (compound concentration: 10 uM).

Take `CC(=O)NCC1CN(c2ccc(N3CCCCC3)c(F)c2)C(=O)O1` (stereo not drawn): the TEAD-luciferase reporter activity is inactive: -1.82 (compound concentration: 200 nM), inactive: -0.493 (compound concentration: 2 uM) and inactive: -1.09 (compound concentration: 10 uM).

Regarding `Cc1cc(-c2cc(OC(=O)c3ccccc3)ccc2Cl)cc2nnc(Nc3ccc(OCCN4CCCC4)cc3)nc12`, the TEAD-luciferase reporter activity is, setting by setting: (compound concentration: 200 nM) inactive: -0.512; (compound concentration: 2 uM) inactive: 0.961; (compound concentration: 10 uM) inactive: 0.667.

As to `COc1cc2c(cc1O)[C@@H]1Cc3ccc(O)c(OC)c3CN1CC2` [(-)-Stepholidine], the TEAD-luciferase reporter activity by setting is: (compound concentration: 200 nM) inactive: 1.16; (compound concentration: 2 uM) inactive: -1.95; (compound concentration: 10 uM) inactive: 1.49.

Take `C[C@@H](O)[C@H]1C(=O)N2C(C(=O)O)=C([C@H]3CCCO3)S[C@H]12` [Faropenem sodium]: the TEAD-luciferase reporter activity was inactive: 1.4 (compound concentration: 200 nM), inactive: -0.906 (compound concentration: 2 uM) and inactive: 0.599 (compound concentration: 10 uM).

With `CC1CCCc2n1c(=O)cc[n+]2C` (stereo not drawn), the TEAD-luciferase reporter activity by setting is: (compound concentration: 200 nM) inactive: -1.82; (compound concentration: 2 uM) inactive: -1.53; (compound concentration: 10 uM) inactive: -0.669.

Regarding `CCCC/N=C(/c1cc(Cl)ccc1O)c1ccccc1Cl` [Fengabine], the TEAD-luciferase reporter activity by setting is: (compound concentration: 200 nM) inactive: -1.4; (compound concentration: 2 uM) inactive: -1.32; (compound concentration: 10 uM) inactive: 2.89.

Turning to `CCOc1ccc(-c2nc(-c3cccc(C(=O)O)n3)cs2)cc1OCC` [tetomilast], the TEAD-luciferase reporter activity was inactive: -0.891 (compound concentration: 200 nM), inactive: -0.0864 (compound concentration: 2 uM) and inactive: 2.47 (compound concentration: 10 uM).

The record behind these values is the supplement of paper PMC10735217.
